In patent US8372600B2, “Method and apparatus for measuring changes in cell volume” (priority 2004, dated 2013):
At least one structure is not confirmed: it was looked up by name or label, or the drawing left a doubt.

Test system: E. Coli strain (DH5alpha)
Assay: Antibiotic sensitivity of suspended bacteria: growth monitored by chamber resistance
Assay type: cell-based
Conditions: strain with plasmid conferring ampicillin resistance; data not shown

Question: Which “Effect on bacterial growth” value does the source give for `NC[C@H]1O[C@H](O[C@H]2[C@H](O)[C@@H](O[C@H]3O[C@H](CO)[C@@H](O)[C@H](N)[C@H]3O)[C@H](N)C[C@@H]2N)[C@H](O)[C@@H](O)[C@@H]1O` [kanamycin] here?
Answer: inhibited similarly
